# In the supplement of paper PMC4604168 (melanoma cell lines):
# The list shows a part of the results. Single values are uncertain, as repeats are few or missing.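 Imaging used 1,536-well plates; nuclei positive for cleaved PARP by antibody were divided by total DNA-stained nuclei to yield the apoptosis fraction. Doses for screening kept most cells viable, and cell lines differ markedly in resting and induced cleaved-PARP levels.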
# How the values were obtained:
# Assay in all cases: cleaved PARP positive nuclei fraction relative to DMSO control; melanoma cells; higher = more apoptosis
# Settings in all cases: library dose: low library concentration; 72 h
# MZ2-MEL = test system: MZ2-MEL
# MeWo = test system: MeWo
# RPMI7951 = test system: RPMI7951
# RVH-421 = test system: RVH-421
# SkMel28 = test system: SkMel28
# SkMel2 = test system: SkMel2
# SkMel30 = test system: SkMel30
# SkMel5 = test system: SkMel5
# UACC257 = test system: UACC257
# UACC62 = test system: UACC62
Compound,cleaved PARP positive nuclei fraction (MZ2-MEL),cleaved PARP positive nuclei fraction (MeWo),cleaved PARP positive nuclei fraction (RPMI7951),cleaved PARP positive nuclei fraction (RVH-421),cleaved PARP positive nuclei fraction (SkMel28),cleaved PARP positive nuclei fraction (SkMel2),cleaved PARP positive nuclei fraction (SkMel30),cleaved PARP positive nuclei fraction (SkMel5),cleaved PARP positive nuclei fraction (UACC257),cleaved PARP positive nuclei fraction (UACC62)
"NC(=O)c1ccc(N(C(N)=O)c2c(F)cccc2F)nc1-c1ccc(F)cc1F + C[C@@H]1CCN(C(=O)CC#N)C[C@@H]1N(C)c1ncnc2[nH]ccc12 [CP690550] (first compound 0.4 µM, partner dose 1 µM)",121%,220%,101%,91.5%,53.8%,197%,54.4%,149%,110%,126%
"C[C@]1(O)C[C@@H](c2nc(-c3ccc4ccc(-c5ccccc5)nc4c3)c3c(N)nccn32)C1 + Cc1ccc(NC(=O)c2cccc(N(C)C)c2)cc1NC(=O)c1ccc(O)cc1 [ZM336372] (first compound 0.4 µM, partner dose 2 µM)",75.2%,96.5%,69.6%,60.8%,44.7%,97.4%,140%,83.1%,179%,179%
"Cn1sc(=O)n(Cc2ccccc2)c1=O + Oc1nc(-c2ccc(C(F)(F)F)cc2)nc2c1CSCC2 [XAV939] (first compound 0.4 µM, partner dose 2 µM)",147%,124%,137%,72.1%,49.1%,67.6%,73.6%,93.6%,122%,760%
"NC1(c2ccc(-c3nc4ccn5c(=O)[nH]nc5c4cc3-c3ccccc3)cc2)CCC1 + O=C(O)C(=O)Nc1sc2c(c1C(=O)O)CCNC2 [TCS401] (first compound 0.4 µM, partner dose 1.66667 µM)",180%,70.7%,90.7%,136%,262%,59%,48.6%,172%,153%,193%
"Cn1cnc2c(F)c(Nc3ccc(Br)cc3Cl)c(C(=O)NOCCO)cc21 [selumetinib] + CN(C)S(=O)(=O)c1ccc2c(c1)/C(=C/c1cc3c([nH]1)CCCC3)C(=O)N2 [SU6656] (first compound 0.015 µM, partner dose 0.4 µM)",353%,37.9%,63.4%,94.4%,107%,67.8%,92.6%,73.2%,17.2%,288%
"NC1(c2ccc(-c3nc4ccn5c(=O)[nH]nc5c4cc3-c3ccccc3)cc2)CCC1 + Cc1cc([N+](=O)[O-])ccc1NS(=O)(=O)c1cc(Cl)ccc1Cl [FH535] (first compound 0.4 µM, partner dose 1 µM)",88.7%,82.4%,91.1%,173%,258%,116%,29.8%,210%,173%,469%
"C[C@]1(O)C[C@@H](c2nc(-c3ccc4ccc(-c5ccccc5)nc4c3)c3c(N)nccn32)C1 + c1cc(-c2cnn3cc(-c4ccc(OCCN5CCCCC5)cc4)cnc23)ccn1 [Dorsomorphin] (first compound 0.4 µM, partner dose 0.4 µM)",64.9%,51%,202%,139%,43.2%,66.8%,40%,361%,188%,61.9%
"CN(c1ncccc1CNc1nc(Nc2ccc3c(c2)CC(=O)N3)ncc1C(F)(F)F)S(C)(=O)=O + O=C1NC(=O)/C(=C/c2ccc(-c3ccc(F)cc3O)o2)S1 [AS252424] (first compound 0.08 µM, partner dose 1 µM)",168%,96.9%,329%,156%,126%,139%,154%,280%,127%,158%
"Cn1sc(=O)n(Cc2ccccc2)c1=O + CN(NC(=O)CC(=O)NN(C)C(=S)c1ccccc1)C(=S)c1ccccc1 [STA4783] (first compound 0.4 µM, partner dose 0.006 µM)",226%,110%,50.6%,59.3%,165%,34.7%,140%,89%,144%,440%
"CC1(C)CCC(c2ccc(Cl)cc2)=C(CN2CCN(c3ccc(C(=O)NS(=O)(=O)c4ccc(N[C@H](CCN5CCOCC5)CSc5ccccc5)c(S(=O)(=O)C(F)(F)F)c4)cc3)CC2)C1 + CCCCCCCCCCCC1=C(O)C(=O)C=C(O)C1=O [Embelin] (first compound 0.4 µM, partner dose 1.2 µM)",248%,322%,61.2%,74%,80.4%,182%,47.7%,329%,79.1%,149%
"CN(c1ncccc1CNc1nc(Nc2ccc3c(c2)CC(=O)N3)ncc1C(F)(F)F)S(C)(=O)=O + O=c1cc(-c2cccc3c2Sc2ccccc2S3)oc(N2CCOCC2)c1 [KU55933] (first compound 0.08 µM, partner dose 1 µM)",130%,63.2%,53.9%,88.3%,199%,60.9%,462%,45.7%,350%,151%
"CCN(CC)CCNC(=O)c1c(C)[nH]c(/C=C2\C(=O)Nc3ccc(F)cc32)c1C [sunitinib] + Cc1cc([N+](=O)[O-])ccc1NS(=O)(=O)c1cc(Cl)ccc1Cl [FH535] (first compound 0.4 µM, partner dose 1 µM)",128%,157%,208%,99.1%,234%,81.1%,332%,217%,59.5%,163%
"Cn1cnc2c(F)c(Nc3ccc(Br)cc3Cl)c(C(=O)NOCCO)cc21 [selumetinib] + O=C(CCCCCCC(=O)Nc1ccccc1)NO [vorinostat] (first compound 0.015 µM, partner dose 0.08 µM)",140%,188%,179%,107%,60%,71.3%,83.1%,27.2%,112%,165%
"CC1(C)CCC(c2ccc(Cl)cc2)=C(CN2CCN(c3ccc(C(=O)NS(=O)(=O)c4ccc(N[C@H](CCN5CCOCC5)CSc5ccccc5)c(S(=O)(=O)C(F)(F)F)c4)cc3)CC2)C1 + CC1(C)NC(=O)N(c2ccc([N+](=O)[O-])c(C(F)(F)F)c2)C1=O [nilutamide] (first compound 0.4 µM, partner dose 1 µM)",302%,166%,73.8%,118%,91.9%,119%,92.8%,104%,327%,97.4%
"CCN(CC)CCNC(=O)c1c(C)[nH]c(/C=C2\C(=O)Nc3ccc(F)cc32)c1C [sunitinib] + O=C(Nc1cccc(Cl)c1)Nc1ncc(CCNc2ncnc3ccsc23)s1 [SNS314] (first compound 0.4 µM, partner dose 0.0008 µM)",110%,54%,167%,103%,196%,61.2%,41.7%,82.8%,1700%,276%
"CC(=O)O[C@@]12CO[C@@H]1C[C@H](O)[C@@]1(C)C(=O)[C@H](O)C3=C(C)[C@@H](OC(=O)[C@H](O)[C@@H](NC(=O)OC(C)(C)C)c4ccccc4)C[C@@](O)([C@@H](OC(=O)c4ccccc4)[C@H]21)C3(C)C [Docetaxel] + Cn1cncc1[C@@](N)(c1ccc(Cl)cc1)c1ccc2c(c1)c(-c1cccc(Cl)c1)cc(=O)n2C [tipifarnib] (first compound 0.0001 µM, partner dose 0.01 µM)",1030%,496%,296%,102%,249%,1030%,203%,92.8%,284%,342%
"CS(=O)(=O)c1ccc(C(=O)Nc2ccc(Cl)c(-c3ccccn3)c2)c(Cl)c1 [vismodegib] + COc1ccc(COc2ccc(Cc3cnc(N)nc3N)cc2OC)cc1 [GW2580] (first compound 1 µM, partner dose 1 µM)",95.6%,70.6%,275%,24.4%,109%,69.8%,62.6%,61%,111%,181%
"Cn1cnc2c(F)c(Nc3ccc(Br)cc3Cl)c(C(=O)NOCCO)cc21 [selumetinib] + Cn1cncc1[C@@](N)(c1ccc(Cl)cc1)c1ccc2c(c1)c(-c1cccc(Cl)c1)cc(=O)n2C [tipifarnib] (first compound 0.015 µM, partner dose 0.01 µM)",501%,37.8%,78.4%,106%,201%,175%,108%,335%,426%,343%
"Cn1sc(=O)n(Cc2ccccc2)c1=O + O=C(O)C(=O)Nc1sc2c(c1C(=O)O)CCNC2 [TCS401] (first compound 0.4 µM, partner dose 1.66667 µM)",205%,124%,41%,81.9%,78.6%,122%,78.3%,74.8%,114%,361%
"CCN(CC)CCNC(=O)c1c(C)[nH]c(/C=C2\C(=O)Nc3ccc(F)cc32)c1C [sunitinib] + O=S(=O)(c1ccccc1)N(CC(F)(F)F)c1ccc(C(O)(C(F)(F)F)C(F)(F)F)cc1 [T0901317] (first compound 0.4 µM, partner dose 1.4 µM)",139%,211%,140%,99.8%,259%,45%,243%,87.1%,73.2%,976%
"Cn1sc(=O)n(Cc2ccccc2)c1=O + Cc1ccc(NC(=O)c2cccc(N(C)C)c2)cc1NC(=O)c1ccc(O)cc1 [ZM336372] (first compound 0.4 µM, partner dose 2 µM)",135%,60.6%,124%,133%,59.5%,102%,176%,111%,181%,145%
"CN(c1ncccc1CNc1nc(Nc2ccc3c(c2)CC(=O)N3)ncc1C(F)(F)F)S(C)(=O)=O + O=C(Nc1ccccc1)c1cc([N+](=O)[O-])ccc1Cl [GW9662] (first compound 0.08 µM, partner dose 2 µM)",133%,162%,46.3%,162%,102%,39.5%,82.8%,72.2%,279%,179%

# Part of the list above with just cleaved PARP positive nuclei fraction (SkMel30), cleaved PARP positive nuclei fraction (UACC257) and cleaved PARP positive nuclei fraction (SkMel28).
Compound	cleaved PARP positive nuclei fraction (SkMel30)	cleaved PARP positive nuclei fraction (UACC257)	cleaved PARP positive nuclei fraction (SkMel28)
CCN(CC)CCNC(=O)c1c(C)[nH]c(/C=C2\C(=O)Nc3ccc(F)cc32)c1C [sunitinib] + O=C(Nc1cccc(Cl)c1)Nc1ncc(CCNc2ncnc3ccsc23)s1 [SNS314] (first compound 0.4 µM, partner dose 0.0008 µM)	41.7%	1700%	196%
CC(=O)O[C@@]12CO[C@@H]1C[C@H](O)[C@@]1(C)C(=O)[C@H](O)C3=C(C)[C@@H](OC(=O)[C@H](O)[C@@H](NC(=O)OC(C)(C)C)c4ccccc4)C[C@@](O)([C@@H](OC(=O)c4ccccc4)[C@H]21)C3(C)C [Docetaxel] + Cn1cncc1[C@@](N)(c1ccc(Cl)cc1)c1ccc2c(c1)c(-c1cccc(Cl)c1)cc(=O)n2C [tipifarnib] (first compound 0.0001 µM, partner dose 0.01 µM)	203%	284%	249%
